The experiment has as its target H2A.Z-FlagHA (histone variant His2Av) (Drosophila) (UniProt P08985). Put plainly: affinity purification with mass spectrometry; anti-FLAG M2 affinity gel with 1 mg nuclear soluble extract of Drosophila ovaries expressing H2A.Z-FlagHA in the germline; IP-buffer (20 mM Tris-HCl pH 7.5, 10% glycerol, 5 mM MgCl2, 150 mM KCl, 0.05% NP40, 0.1% Tween20, 1 mM DTT), 4 h at 4 °C; eluted with Flag peptide; enrichment over control, 3 biological replicates.

The chains behind the UniProt entries cited, without tags or fusion partners. Where a name states a change or a piece, a line headed by the entry shows the natural chain unless it says otherwise.
UniProt P08985: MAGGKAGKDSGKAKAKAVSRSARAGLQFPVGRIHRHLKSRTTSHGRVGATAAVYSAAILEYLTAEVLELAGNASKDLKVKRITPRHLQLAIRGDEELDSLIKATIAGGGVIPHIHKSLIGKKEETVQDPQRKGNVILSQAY
UniProt Q9VM63: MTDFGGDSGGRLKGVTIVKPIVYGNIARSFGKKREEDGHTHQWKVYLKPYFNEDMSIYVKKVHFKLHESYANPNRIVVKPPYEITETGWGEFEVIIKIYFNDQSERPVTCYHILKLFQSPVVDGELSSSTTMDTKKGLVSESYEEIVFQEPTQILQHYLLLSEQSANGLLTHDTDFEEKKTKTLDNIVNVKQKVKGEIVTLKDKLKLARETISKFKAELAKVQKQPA
UniProt A1ZAS6: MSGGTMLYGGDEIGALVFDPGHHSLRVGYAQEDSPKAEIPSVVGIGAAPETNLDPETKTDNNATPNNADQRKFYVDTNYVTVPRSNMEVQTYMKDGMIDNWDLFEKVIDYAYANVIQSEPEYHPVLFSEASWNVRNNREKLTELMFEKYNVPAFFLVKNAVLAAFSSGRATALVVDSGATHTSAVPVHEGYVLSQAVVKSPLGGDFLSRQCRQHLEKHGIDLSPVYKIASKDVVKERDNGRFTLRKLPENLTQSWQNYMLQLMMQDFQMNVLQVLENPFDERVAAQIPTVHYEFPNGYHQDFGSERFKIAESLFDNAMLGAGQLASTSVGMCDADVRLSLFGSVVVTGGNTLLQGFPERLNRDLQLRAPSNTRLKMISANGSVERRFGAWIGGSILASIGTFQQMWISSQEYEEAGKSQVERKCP
UniProt Q960X4: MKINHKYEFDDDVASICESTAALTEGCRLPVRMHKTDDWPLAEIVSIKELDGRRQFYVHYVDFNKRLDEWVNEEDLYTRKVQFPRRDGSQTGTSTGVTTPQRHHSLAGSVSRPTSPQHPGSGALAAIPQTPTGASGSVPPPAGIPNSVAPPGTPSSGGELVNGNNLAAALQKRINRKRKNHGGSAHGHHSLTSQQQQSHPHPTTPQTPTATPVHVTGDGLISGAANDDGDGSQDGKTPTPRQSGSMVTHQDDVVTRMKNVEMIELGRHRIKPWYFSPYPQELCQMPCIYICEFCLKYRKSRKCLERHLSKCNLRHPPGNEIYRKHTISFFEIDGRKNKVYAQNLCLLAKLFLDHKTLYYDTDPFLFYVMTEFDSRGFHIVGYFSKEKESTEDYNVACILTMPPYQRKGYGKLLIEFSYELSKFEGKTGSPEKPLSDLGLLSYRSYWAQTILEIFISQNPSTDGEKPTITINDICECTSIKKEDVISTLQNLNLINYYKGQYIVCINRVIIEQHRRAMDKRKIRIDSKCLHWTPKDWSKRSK
UniProt Q9V3K3: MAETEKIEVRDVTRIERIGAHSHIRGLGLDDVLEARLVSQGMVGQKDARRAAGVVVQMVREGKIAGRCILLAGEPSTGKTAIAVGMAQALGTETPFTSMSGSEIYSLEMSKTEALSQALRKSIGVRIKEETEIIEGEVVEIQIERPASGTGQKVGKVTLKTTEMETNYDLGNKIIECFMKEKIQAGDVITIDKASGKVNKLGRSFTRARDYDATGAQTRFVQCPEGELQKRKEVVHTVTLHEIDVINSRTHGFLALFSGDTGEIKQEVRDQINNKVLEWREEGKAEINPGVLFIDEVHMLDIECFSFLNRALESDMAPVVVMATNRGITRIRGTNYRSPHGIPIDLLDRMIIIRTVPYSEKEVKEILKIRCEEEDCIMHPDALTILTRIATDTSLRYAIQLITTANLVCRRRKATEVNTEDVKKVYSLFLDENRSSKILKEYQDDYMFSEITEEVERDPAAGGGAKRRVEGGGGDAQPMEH
UniProt Q9NDJ2: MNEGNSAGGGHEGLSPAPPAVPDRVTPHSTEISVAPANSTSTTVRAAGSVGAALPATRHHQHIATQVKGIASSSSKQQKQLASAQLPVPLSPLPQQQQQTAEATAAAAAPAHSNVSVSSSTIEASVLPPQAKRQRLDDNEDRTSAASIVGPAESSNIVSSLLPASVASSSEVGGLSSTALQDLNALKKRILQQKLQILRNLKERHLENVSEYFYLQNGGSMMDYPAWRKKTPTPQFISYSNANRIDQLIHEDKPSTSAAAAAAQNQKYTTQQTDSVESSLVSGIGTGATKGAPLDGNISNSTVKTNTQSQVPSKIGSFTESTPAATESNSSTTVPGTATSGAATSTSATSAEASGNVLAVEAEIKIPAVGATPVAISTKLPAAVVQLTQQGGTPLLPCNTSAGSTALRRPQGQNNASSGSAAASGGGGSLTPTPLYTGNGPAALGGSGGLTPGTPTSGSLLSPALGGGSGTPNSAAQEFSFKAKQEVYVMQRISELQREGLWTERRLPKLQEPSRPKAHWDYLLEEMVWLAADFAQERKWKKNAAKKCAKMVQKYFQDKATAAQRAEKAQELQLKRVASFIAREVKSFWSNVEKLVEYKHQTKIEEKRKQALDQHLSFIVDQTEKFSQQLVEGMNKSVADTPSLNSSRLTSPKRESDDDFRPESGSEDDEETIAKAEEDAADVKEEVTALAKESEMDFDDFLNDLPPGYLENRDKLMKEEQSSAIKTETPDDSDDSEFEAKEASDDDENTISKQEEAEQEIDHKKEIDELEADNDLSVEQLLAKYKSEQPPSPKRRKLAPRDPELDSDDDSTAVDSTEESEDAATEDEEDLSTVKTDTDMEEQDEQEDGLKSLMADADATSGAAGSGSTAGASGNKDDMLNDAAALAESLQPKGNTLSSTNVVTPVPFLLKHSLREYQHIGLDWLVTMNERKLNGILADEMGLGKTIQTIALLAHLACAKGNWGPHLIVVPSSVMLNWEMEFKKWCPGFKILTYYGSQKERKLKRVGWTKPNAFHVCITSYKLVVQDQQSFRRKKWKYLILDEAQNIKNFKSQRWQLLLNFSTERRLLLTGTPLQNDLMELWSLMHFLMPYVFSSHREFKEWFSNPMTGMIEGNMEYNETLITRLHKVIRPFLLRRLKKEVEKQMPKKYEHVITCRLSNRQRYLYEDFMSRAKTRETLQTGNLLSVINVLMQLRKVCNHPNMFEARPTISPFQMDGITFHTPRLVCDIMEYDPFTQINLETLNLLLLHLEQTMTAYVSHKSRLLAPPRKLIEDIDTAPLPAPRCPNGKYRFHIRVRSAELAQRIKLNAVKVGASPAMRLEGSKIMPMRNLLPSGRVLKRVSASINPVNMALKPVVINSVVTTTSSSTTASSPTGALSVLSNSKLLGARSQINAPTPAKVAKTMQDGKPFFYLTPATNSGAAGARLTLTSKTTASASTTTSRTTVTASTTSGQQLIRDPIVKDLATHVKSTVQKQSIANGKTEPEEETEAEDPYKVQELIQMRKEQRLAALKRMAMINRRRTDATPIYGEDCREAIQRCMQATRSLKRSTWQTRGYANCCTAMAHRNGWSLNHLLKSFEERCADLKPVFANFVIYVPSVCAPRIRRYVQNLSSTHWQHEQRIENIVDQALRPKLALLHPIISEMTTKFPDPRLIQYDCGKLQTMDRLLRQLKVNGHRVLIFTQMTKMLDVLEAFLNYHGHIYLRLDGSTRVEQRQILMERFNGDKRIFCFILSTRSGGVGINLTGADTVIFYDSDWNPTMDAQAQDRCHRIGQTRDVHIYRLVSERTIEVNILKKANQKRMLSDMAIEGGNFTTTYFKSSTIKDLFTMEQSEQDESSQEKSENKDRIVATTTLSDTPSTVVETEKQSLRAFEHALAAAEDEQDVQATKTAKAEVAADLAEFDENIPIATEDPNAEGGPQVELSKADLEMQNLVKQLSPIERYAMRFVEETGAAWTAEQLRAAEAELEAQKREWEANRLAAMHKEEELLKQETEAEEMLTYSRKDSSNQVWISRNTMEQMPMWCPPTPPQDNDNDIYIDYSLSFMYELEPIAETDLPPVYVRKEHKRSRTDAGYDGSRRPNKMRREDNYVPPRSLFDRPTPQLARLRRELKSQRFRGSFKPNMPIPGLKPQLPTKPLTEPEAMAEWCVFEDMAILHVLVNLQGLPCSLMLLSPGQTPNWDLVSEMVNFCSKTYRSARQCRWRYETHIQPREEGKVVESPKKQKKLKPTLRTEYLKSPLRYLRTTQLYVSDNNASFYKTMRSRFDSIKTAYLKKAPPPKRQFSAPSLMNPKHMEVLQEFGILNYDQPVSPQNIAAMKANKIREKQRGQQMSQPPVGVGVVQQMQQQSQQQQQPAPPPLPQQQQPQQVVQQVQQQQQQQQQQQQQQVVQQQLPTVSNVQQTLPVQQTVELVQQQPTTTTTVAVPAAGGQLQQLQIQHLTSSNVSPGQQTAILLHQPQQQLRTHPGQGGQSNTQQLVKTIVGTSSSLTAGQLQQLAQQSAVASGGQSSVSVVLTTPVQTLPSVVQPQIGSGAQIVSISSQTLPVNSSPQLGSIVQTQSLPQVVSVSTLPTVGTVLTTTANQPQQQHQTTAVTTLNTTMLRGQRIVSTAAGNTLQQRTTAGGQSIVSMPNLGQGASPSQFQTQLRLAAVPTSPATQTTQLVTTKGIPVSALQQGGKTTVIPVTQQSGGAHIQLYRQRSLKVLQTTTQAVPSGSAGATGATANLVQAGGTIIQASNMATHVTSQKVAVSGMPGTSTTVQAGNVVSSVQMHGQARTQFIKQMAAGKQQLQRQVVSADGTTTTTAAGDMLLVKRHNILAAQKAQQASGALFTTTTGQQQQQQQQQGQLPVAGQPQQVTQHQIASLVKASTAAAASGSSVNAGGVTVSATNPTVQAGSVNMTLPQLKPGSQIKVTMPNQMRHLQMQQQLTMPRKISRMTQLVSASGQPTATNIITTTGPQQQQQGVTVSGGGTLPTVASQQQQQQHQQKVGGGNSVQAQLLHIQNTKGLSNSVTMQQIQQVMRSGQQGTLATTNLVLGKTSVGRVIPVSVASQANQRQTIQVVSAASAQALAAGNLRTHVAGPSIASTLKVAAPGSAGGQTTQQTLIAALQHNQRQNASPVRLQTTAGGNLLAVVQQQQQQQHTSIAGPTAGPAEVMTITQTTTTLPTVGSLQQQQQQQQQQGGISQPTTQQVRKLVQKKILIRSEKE
UniProt Q9VRN3: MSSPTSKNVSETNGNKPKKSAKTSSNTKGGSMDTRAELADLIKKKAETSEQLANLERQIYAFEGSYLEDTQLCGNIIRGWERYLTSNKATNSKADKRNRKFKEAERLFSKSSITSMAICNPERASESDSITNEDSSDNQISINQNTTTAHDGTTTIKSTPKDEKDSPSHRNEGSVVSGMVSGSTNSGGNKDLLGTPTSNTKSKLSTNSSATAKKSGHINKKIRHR

No constants are given. Whether binding was seen depends on the method and setting. In cells and extracts the contact can be indirect. A yes stands for co-enrichment or nearness to the bait. Other partners may have been found.

Regarding Gas41 (from UniProt Q9VM63), the binding entry is “binds”.
Consider Bap55 (from UniProt A1ZAS6), for which the binding result is on record as “binds”.
Regarding Tip60 (from UniProt Q960X4 1-541), the binding entry is listed as “binds”.
Regarding Nipped-A (from UniProt Q8I8U7 1-3790), the binding entry is reported as “binds”.
In the case of rept (from UniProt Q9V3K3 1-481), the binding entry is on record as “binds”.
For “Domino isoform A (from UniProt Q9NDJ2 1-3198)”, the binding entry is “binds”.
In the case of Eaf6 (from UniProt Q9VRN3 1-225), the binding entry was “binds”.

B1: Brd8 (protein, UniProt Q9VAM5 1-872)
chain: MSAGVQERLQLSRMPLDTWSKREQLILASAVSCSGDQNWITVSRTLKTICGNGSSNRPADWFSQKNCAMQYGNLLESVEATKRKKRSSESSAGVSSPATVETPTELLLRRLTEERQAEIKAQMRQDQETYRRIQREIESLQSDAVTEQELQDMWLEIEKEQEARRIEEMKLENRMREREQRKKDLASNWRNSSLAVKRSNQAADTTSVDMDVEDINTSGNGKQQTGPSPLLTSLLKSPTGNAPATPTPGGAAPAAGGTGSVARATAPTITSLLTSGPSSAVANQPVITMKSPTDAAFMSRPITGPPASEASTTPTLERSPSQAAPTLSMLLEKNMAAAKANESGSLVKPEGSGNQEQGVDEATSSAAGTADSDEADPNEAQLLEVFKNIDQIIDDIDIDMASVIDDEILKNVDDVVASPSNDKAEVIDFEDKLDALKREQSKSSPASDKPKSVELVIGSSDDSNDNIPLAAVASQESKDRGQSGGESTRGTEDAESEPLTSEVAVEEIGETITIISTSSEDTAGSPPTKMEEDGATDSLPKKEDAAEDKSEQESSSQGQNKAGGSTDEPELIDHQATREAQSKSGKDTAGKPVTMQEKTTTQSAPVPVDLHDTDEESSSLTDSSKHDDHPRSAKAKPPALKLALDDSKSELELSGTPQPPSAPARTPLLRKLPHRDRSESPMVDDDATTASDHSTARSTRRRCSSTPVIDSIPNSPASSEHTDDRRETRAASKKLFLSIYAMLLDSKHAAPFKRPFHDEHAQRHADLCLRPMDFPTIKRNIDSGFIRSLSELHRDVLLMAHNVLVAYKPHTAQHKTARLFVQDCQAIKEFSQLPDVQAGITATPVSNTGSLRADKSSGSKARSGSRKSQRHH
With B1, the binding result was “binds”.

B2: Arp6 (protein, UniProt P45890 1-398)
chain: MANAVVVLDNGAHTAKVGLANQDEPHVVPNCIMKAKSERRRAFVGNQIDECRDTSALYYILAFQRGYLLNWHTQKTVWDYIFSKDGIGCSLENRNIVITEPQMNFQSIQEATLEILFEEYKVDGVYKTTAADLAAFNYVADSEERTTMESLNCIIIDVGYSFTHVVPFVLGRRVLQGIRRIDMGGKALTNQLKELISYRHLNVMDESHVVNQIKEDVCFVAEDFKQAMQVHYSEEKRREVTVDYVLPDFTTVKRGYVRVPGKPREDEEQQQMVSLCNERFTVPELLFNPSDIGVQQVGIPEAVADCLKACPWEAHRELLLNILIVGGSAQFPGFLPRLKRDLRALVPDDLEVSLICPEDPVRYAWYGGKEVATSPNFEEFVYTQDDYEEYGFQGINQR
As to B2, the binding result is reported as “binds”.

B3: Ing3 (protein, UniProt Q9VWS0 1-686)
chain: MLYLEDYLEMIEHLPQELRDRFTEMRELDLAVQNNMDSLDKKAHMFFKQCKRDELQHESMDTEFHSLRGEYFKVMEDADEKVAIATQIHELVERYLRRLDSELFKFKCELEADNNGITEILERRSLELDGNSTAATALLLSMNQKENRYYGASSANTMVNSSTGHATGAATGSSGIALVSGAAGTGGALSSISTAQLGSSQRHRKLEKRRETICTVPVQEKRANLNHSLPVVGSGSTTAAAASSSSATTAAAAASLASATTAQTHVSNHIGSIAATHLTLPVAMGVAGGSSSLASSSLATGTGSLVRQLPTNLTHTVLSTSGGATAAAAAGGNSTSVVAAGTAHGHAHVSGHSAAGATVTYNLQQLGGGAAASSAIAAAASQAIVATQQMQQGRRTASLKASYEAIHGTAGTTTDFWTQAGQGGLQQSTAGSVTVAAGTALATGAAGGSSTGSHHSHHSQSHHGGHGHGHGHGHGHGHGHGHHSSSGHGGGHSSHHQEKKQKKKLTTALTLPTVQPTAGSSSGNSIGSSSSISLESVNKLTTSAALAAASATTTYMSVGGQALLAMTPGGGGGGNLAESSAEGVPAGMIAMNLPTTTVTPGSSLTIGENGLVVEQTNEGEWSYDPNEPRYCTCNQVSYGDMVACDNDACPYEWFHYPCVGITQPPKGKWYCPKCTASMRRRGNRKN
With B3, the binding entry was “binds”.

B4: DMAP-1 (protein, UniProt Q7K3D8 1-433)
chain: MSADVRDILDMERANTPEVTRDSFLATKKRNFERTKTASRRPEGMHREVFALLYTDKKDAPPLLPTDTALGIGAGYKETKARLGMKKVRKWEWAPFSNPARNDSAVFHHWKRVTDNSTDYPFAKFNKQLEVPSYTMTEYNAHLRNNINNWSKVQTDHLFDLARRFDLRFIVMADRWNRQQHGTKTVEELKERYYEVVALLAKAKNQTSEKKVFVYDVEHERRRKEQLEKLFKRTTQQVEEENMLINEMKKIEARKKERERKTQDLQKLISQADQQNEHASNTPSTRKYEKKLHKKKVHQQPRPSRVDSVVNAIEIGSSGIKFADLRGSGVSLRSQRMKLPANIGQRKVKALEQAIQEFKVDPAPPPTEDICTSFNELRSDMVLLCELRTALSTCVYEMESLKHQYEAACPGKTLNIPPSLVPIKTEALDNSTN
With B4, the binding entry is “binds”.

B5: MRG15 (protein, UniProt Q9Y0I1 1-424)
chain: MGEVKPAKVENYSTGTDANTLFVDGERVLCFHGPLIYEAKVLKTKPDATPVEYYIHYAGWSKNWDEWVPENRVLKYNDDNVKRRQELARQCGERSKKDNKKGSAKAKKMEQMRNESRASTPSKDSNTSQSTASSTPTTSAGPGSKSEAGSTGTTTTNSTANSTTSRAHRKSTQSTPSTARPGTPSDKKEDPAAAETTEEEGPVAPKKKRMSEQRPSLTGSDVAEKPLPPTTTPSTPTTEPAPCVESEEAYAAKVEVKIKIPDELKHYLTDDWYAVVREHKLLELPAKVTVQQISEQYLAHKKSVKSTSASKEVAINDVLDGIVEYFNVMLGSQLLYKFERTQYADVMQKHPDTPLSELYGSFHLLRLFVRLGSMLSYSALDQQSMQNLLTHVQDFLKFLVKNSSIFFSMSNFINVDPEYVRNAQ
With B5, the binding result is “binds”.

B6: YL-1 (protein, UniProt Q9VKM6 1-351)
chain: MAASRSRRNNAGNKIAHLLNEEEEDDFYKTSYGGFQEDEEDKEYEQKDEEEDVVDSDFSIDENDEPVSDQEEAPEKKRKRGVVNTKAYKETKPAVKKETKATPALHKKRPGGGVTKRRPRPRFTVLDSGRKSIRTSTAIKTQATKIRLKELDDARKRKKKKVRVEDYMPTQEELLEEAKITEEENTKSLEKFQKMELEKKKSRPTKRTFSGPTIRYHSLTMPAMRKPTRGANPAVDSKDLAGKCERTFVTIENDFNDKVFQSLFRHKAPPKASNGICPITRLPARYFDPITQQPYYSIQAFKILREAYYMQLEQQGGGSEQPELAKWLEWRKLVKENRLKASAAASKNGDN
Turning to B6, the binding entry is on record as “binds”.

(Values after PMC8636486.)
